These results are taken from patent US6177438A, “Morphinan derivatives and pharmaceutical use thereof” (priority 1993, dated 2001).

Molecules are shown by their SMILES.

For this test, the system named is acetic acid-induced writhing in ddy mice. Description: animal or person. Format: in vivo, 5 week old ddy mice. Conditions: Mus musculus, sc. The procedure: 5 week old ddy mice were used in this test. After intraperitoneal administration of 0.1 ml of 0.6% aqueous acetic acid per 10 g of body weight, the number of writhing reactions that occurred in 10 minutes starting 10 minutes after administration was evaluated for the indicator. The test drug was administered subcutaneously into the backs of the animals 15 minutes before administration of acetic acid.

As a reminder, the ED50 is the dose that gives a 50% effect, or the effect in half of the subjects. A higher ED50 goes with a need for a large dose. `CN1CC[C@]23c4c5ccc(O)c4O[C@H]2[C@@H](O)C=C[C@H]3[C@H]1C5` [Morphine, reference compound] yielded an ED50 of 0.55 mg/kg.
